Assay results published in patent publication US20210163604A1 (MITSUBISHI TANABE PHARMA, published 2021).
Substitutions are numbered along the chain they refer to. Names may count otherwise. These are yes or no findings as the source states them, for the method shown. Some entries that bind do so weakly or less than the wild type.

B1: F6B1P3D12 mouse monoclonal anti-cMET antibody (antibody, V domains shown)
VH: QVQLQQSGAELAKPGASVKMSCRASGYTFTSYWMHWVKQRPGQGLDWIGYIKPSTDNTEYNQKFKDKATLTADKSSSTAYMQLSSLTSEDSAVYYCARSYGNYPLMDYWGQGTSVTVSS
VL: QIVLTQSPAIMSASPGEKVTLTCSASSSVTSNYLYWYQQKPGSSPKLWIYSTSNLASGVPARFSGSGSGTSYSLTISSMEAEDAASYFCHQWSSYPPTFGSGTKLEIKR
notes: Mouse hybridoma antibody
B2: F6B1P1E2 mouse monoclonal anti-cMET antibody (antibody, V domains shown)
VH: B1 VH with R23K, D46E, K52N, N57Y, S77T, A97V
VL: B1 VL with T30S, Q38H, A61V
notes: Mouse hybridoma antibody
B3: F6AP8E2 mouse monoclonal anti-cMET antibody (antibody, V domains shown)
VH: EVQLQQSGAELVRPGALVKLSCKASGFNINDYFMHWVKQRPEQGLEWIGWIDPENGNTIYDPKFQGKASITADTSSNTAYLQLSSLTSEDTAVYYCARGGNYLRESYYYAMDYWGQGTSVTVSS
VL: DIVMTQSPKSMSMSVGERVTLSCKASENVGTYVSWYQQKPDQSPKLLIYGASNRYTGVPDRFTGSGSATDFTLTISSVQAEDLADYHCGQSYSYPLTFGAGTKLELKR
notes: Mouse hybridoma antibody
B4: F6BP2D4 mouse monoclonal anti-cMET antibody (antibody, V domains shown)
VH: B1 VH with R23K, D46E, K52N, N57Y, T58I, D73G, Y103F
VL: B1 VL with T30S, A61V
notes: Mouse hybridoma antibody
B5: hD12-T289C-II (hD12 variant T289C, payload of chemical formula II site-specifically conjugated) (antibody, human IgG2, kappa, V domains shown)
VH: QVQLVQSGAEVKKPGASVKVSCKASGYTFTSYWMHWVKQAPGQGLDWIGYIKPSTDNTEYNQKFKDKATLTADKSTSTAYMELSSLRSEDTAVYYCARSYGNYPLMDYWGQGTTVTVSS
VL: B1 VL with M11L, A13L, K18R, V19A, T22S, W48L, S73T, M79L
modifications: payload of chemical formula II on Cys 289 (EU numbering), maleimide chemistry

Experiments:
[1] = target: monkey cMET (Macaca fascicularis, Cynomolgus Macaque) (Cynomolgus Macaque (Macaca fascicularis)); experiment: ELISA, species cross-reactivity (NHP column)
[2] = target: monkey cMET (Macaca fascicularis, Cynomolgus Macaque) (Cynomolgus Macaque (Macaca fascicularis)); experiment: ELISA, species cross-reactivity, antibody titrated on cynomolgus cMET; x axis printed -8 to 2 with ug/mL (log10)
[3] = target: T1, human cMET (human, UniProt P08581 25-932, limits assumed); experiment: ELISA, species cross-reactivity, antibody titrated on human cMET; x axis printed -8 to 2 with ug/mL (log10)
T1 construct: also called hMET; HGFR

[4] = target: T2, Recombinant Human c-Met-10x His (human, UniProt P08581 25-932); experiment: MET Binding ELISA on plate-bound human cMET; y axis Luminescence
T2 construct: Made in-house

[5] = target: T2, Recombinant Human c-Met-10x His; experiment: cMET binding ELISA as in Example 3 (plate-bound human cMET)

Binder | binding [1] | binding [2] | binding [3] | binding [4] | binding [5]
B1 | binds | binds |  |  | 
B2 | binds | binds |  |  | 
B3 | binds | binds | binds |  | 
B4 | binds | binds |  |  | 
B5 |  |  |  | binds | binds
